Experimental data: PubChem BioAssay AID1259331 (Drosophila RNAi Screening Center, 2017)
Assay: 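Fly transmembrane-protein genes that affect zinc toxicity in cultured cells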 (primary screen). System: Drosophila S2R+ cells. Knock-down reagent: long dsRNA against Drosophila genes. Timing: 5 days (4 days knock-down, then 1 day zinc). Challenge: zinc chloride at 15 mM final level for 1 day. Measurement: 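Total cellular ATP measured by luciferase luminescence as a viability proxy, turned into Z scores from three plate copies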. Scale: mean Z score: higher = more ATP than other wells, better survival under zinc; ATP luminescence: higher = more ATP, more viable cells. Active means: 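a reagent is called a hit when its Z score is above 1.5 or below -1.5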. Meaning of the calls: active = hit, ATP up or down; inactive = not a hit.
The deposit covers about 3,100 reagents; below is a part drawn at random. 126 of all reagents (4.1%) count as active. 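Calls are per reagent; zinc was so toxic that few knock-downs lowered ATP further, so most hits raise ATP.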 Raw values are not corrected between plates. A number with no mark means an inactive call. The numbers tell different reagents against one gene apart. The record does not give: the amount of reagent.

{"predicted target": "boss (bride of sevenless)", "dsRNA no.": 1, "mean Z score": -0.0361, "ATP luminescence, replicate 1": 37982, "ATP luminescence, replicate 2": 59651}
{"predicted target": "boss (bride of sevenless)", "dsRNA no.": 2, "mean Z score": -0.06, "ATP luminescence, replicate 1": 52394, "ATP luminescence, replicate 2": 54459}
{"predicted target": "Sb (Stubble)", "dsRNA no.": 1, "mean Z score": 0.315, "ATP luminescence, replicate 1": 34019, "ATP luminescence, replicate 2": 66095}
{"predicted target": "Sb (Stubble)", "dsRNA no.": 2, "mean Z score": 0.187, "ATP luminescence, replicate 1": 63462, "ATP luminescence, replicate 2": 65091}
{"predicted target": "ZnT63C (Zinc transporter 63C)", "dsRNA no.": 1, "mean Z score": 0.463, "ATP luminescence, replicate 1": 50549, "ATP luminescence, replicate 2": 43862}
{"predicted target": "ZnT63C (Zinc transporter 63C)", "dsRNA no.": 2, "mean Z score": -0.0601, "ATP luminescence, replicate 1": 39647, "ATP luminescence, replicate 2": 44188}
{"predicted target": "ZnT63C (Zinc transporter 63C)", "dsRNA no.": 3, "mean Z score": -0.303, "ATP luminescence, replicate 1": 49555, "ATP luminescence, replicate 2": 64027}
{"predicted target": "CG4942", "dsRNA no.": 1, "mean Z score": -0.395, "ATP luminescence, replicate 1": 29667, "ATP luminescence, replicate 2": 27148}
{"predicted target": "CG4942", "dsRNA no.": 2, "mean Z score": -0.161, "ATP luminescence, replicate 1": 56019, "ATP luminescence, replicate 2": 57565}

Copied from the listing (2 entries):
{"predicted target": "CG4942", "dsRNA no.": 1, "mean Z score": -0.395, "ATP luminescence, replicate 1": 29667, "ATP luminescence, replicate 2": 27148}
{"predicted target": "CG4942", "dsRNA no.": 2, "mean Z score": -0.161, "ATP luminescence, replicate 1": 56019, "ATP luminescence, replicate 2": 57565}

The list goes on:
{"predicted target": "NijA (Ninjurin A)", "dsRNA no.": 1, "mean Z score": -0.305, "ATP luminescence, replicate 1": 72140, "ATP luminescence, replicate 2": 53636}
{"predicted target": "Ac76E (Adenylyl cyclase 76E)", "dsRNA no.": 1, "mean Z score": -0.247, "ATP luminescence, replicate 1": 61695, "ATP luminescence, replicate 2": 62227}
{"predicted target": "Ac76E (Adenylyl cyclase 76E)", "dsRNA no.": 2, "mean Z score": -0.314, "ATP luminescence, replicate 1": 29599, "ATP luminescence, replicate 2": 30279}
{"predicted target": "CG8249", "dsRNA no.": 1, "mean Z score": -0.497, "ATP luminescence, replicate 1": 63239, "ATP luminescence, replicate 2": 60916}
{"predicted target": "CG8249", "dsRNA no.": 2, "mean Z score": -0.292, "ATP luminescence, replicate 1": 53224, "ATP luminescence, replicate 2": 50887}
{"predicted target": "CG2126", "dsRNA no.": 1, "mean Z score": 0.31, "ATP luminescence, replicate 1": 67097, "ATP luminescence, replicate 2": 75381}
{"predicted target": "CG2519", "dsRNA no.": 1, "mean Z score": -0.617, "ATP luminescence, replicate 1": 26839, "ATP luminescence, replicate 2": 28669}
